## Percent effect of library compounds

Data taken from ChEMBL document CHEMBL3988442, “University of Dundee, Small-Polar-MMV Screening Library” (2021).

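Whole-cell growth test on Mycobacterium tuberculosis, read after 4 days in a medium based on cholesterol and the lipid DPPC; the read-out is not stated. Compounds at 50 µM. The record gives no direction; compounds that gave an IC50 in retests scored well above the rest, so higher reads as more growth inhibition. Size under these conditions: about 69,000 compounds, about 370 of them at 50% or above in at least one test.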

The filed quantity is “Percent Effect” (%). The controls that fix the scale are not given in the record; negative values are as filed. Compounds were drawn at random from those tested, without regard to their results. Two or more numbers in one place are separate tests of the same structure; such repeats can differ widely.

SMILES,effect
Cc1cc(C[C@@H]2COC[C@H]2NCc2ccc(Cl)c(Cl)c2)on1.O=C(O)CC(O)(CC(=O)O)C(=O)O,21.77%
Cl.O=C(CN1CCCC1=O)N1CCC(O)(Cn2ccc3ccncc32)CC1,-7.099%
CN1CCC2(CC1)CC(NC(=O)c1csnn1)c1ccccc1O2.O=C(O)C(F)(F)F (centres undefined),19.04%
O[C@H]1CN(Cc2cc3ccccc3o2)CC[C@@]12CCCO2,0.7871%
[H][C@]12CNC[C@@]1(C(=O)NCCOCCO)CN(C1CCCC1)C2,-9.674%
Cc1cc(CC(C)Nc2ncnc3cccc(F)c23)[nH]n1 (centres undefined),10.73%
O=C(O)C(F)(F)F.[H][C@@]12CCN(C3CCOCC3)C[C@@]1([H])[C@H](C(=O)NC1CC1)CCO2,-19.83%
[H][C@]12CC[C@]([H])(CN(Cc3cscn3)C1)N(C(=O)c1cccc(OC)c1)C2,-7.829%
O=C(O)C(F)(F)F.O=C(O)C(F)(F)F.[H][C@@]12CCCO[C@]1([H])[C@H](NC(=O)c1cnn(C)c1)CN2Cc1cccnc1,-9.666%
COC(=O)c1cccc(S(=O)(=O)N2CSCC2C(=O)N(C)C2CC2)c1 (centres undefined),1.911%
CC(O)CN(C)C(=O)Nc1ccn(-c2cccc(C(F)(F)F)c2)n1 (centres undefined),-11.34%
Cc1ccc(CN2CCN(c3cc(NCCO)ncn3)CC2CCO)o1 (centres undefined),-5.16%
O=C(NCCCN1CCCC1)c1n[nH]c(=O)c2ccccc12,-15.76%
COc1cccc(CNC(=O)C(C)n2ccnc2C(C)C)c1OC (centres undefined),-27.8%
CC(C(=O)NCc1ccco1)N1CCN(Cc2nccn2C)CC1 (centres undefined),-16.35%
[H][C@@]12CCCO[C@]1([H])[C@H](OCc1cccnc1)CN2C(=O)c1cccn1C,-7.014%
COc1cccc(CNC(=O)c2nc3c(s2)CCN(C(C)=O)CC3)c1,-8.605% and -6.275%
CCOc1ccc(OCC)c(NCc2cc(C)on2)c1,36.69%
CC(C)(C)c1cc(CNC(=O)c2cc(COc3ccccc3)[nH]n2)[nH]n1,11.89%
Cc1cnn(CC2CCCN2C(=O)CCc2c(C)nn(C)c2C)c1 (centres undefined),-5.775%
CC(C)Cc1cc(CC2(NCc3ccccc3Cl)COC2)no1,-14.27%
COC1CCN(S(=O)(=O)N2CCCC2c2ccco2)CC1 (centres undefined),11.39%
CN(Cc1noc(C2CC2)n1)C1CCN(Cc2ccccc2C#N)C1 (centres undefined),-10.52%
CC(C)n1nccc1CN1Cc2nccn2CC1c1ccccc1 (centres undefined),-4.878% and -6.331%
Cn1ccc(C(=O)N2CCN(c3nccs3)CC2)cc1=O,2.094%
CCS(=O)(=O)N1CCN(C(=O)C(C)C)CC2(CC(=O)N(C)C2)C1 (centres undefined),-8.305%
CCCc1nc(CNC(=O)Cc2cc(C)no2)cs1,-15.61%
[H][C@]12CCCN(C(=O)c3ccsc3)[C@@]1([H])CN(C(=O)c1ccco1)C2,0.911%
CCc1noc(C)c1C(=O)N(C)Cc1ncc(C)c(OC)c1C,4.615%
CCN1CCn2c(C)cnc2C12CCN(C(=O)c1ccco1)CC2.O=C(O)C(F)(F)F.O=C(O)C(F)(F)F,-2.332% and -9.374%
Fc1cccc(-n2ccc(CN3CCCCC3Cn3cncn3)n2)c1 (centres undefined),20.69%
Cn1ccnc1CN1CCCN(C(=O)c2ccc3c(c2)OCO3)CC1,-11.11%
CC(C)(C)C(=O)N1CCC(c2noc(C3CCC(=O)N3)n2)CC1 (centres undefined),11.61% and 4.189%
COc1ccc(-c2cnc(N(C)C)nc2C2CNCCO2)cc1.Cl (centres undefined),20.72% and 10.92%
N#Cc1cccc(CN(CCO)Cc2ccsc2)c1,-2.99%
Cn1cc(-c2cc(C(F)(F)F)nn2CCC#N)cn1,-4.076%
O=C(CN(CC1CCC1)CC(F)(F)F)N1CCOCC1,-13.62%
CCc1cc(NC2CCN(S(C)(=O)=O)CC2)n2nc(C)c(C)c2n1,-10.91%
Cc1cc(C)n(C2CCCN(C(=O)Cc3csc(C)n3)C2)n1 (centres undefined),4.526%
CCc1nnc2n1CCN(c1nc3ccccc3o1)C2,-18.43%
Cc1nccc(CN2CC[C@H](Oc3cccc(F)c3)[C@@](C)(O)C2)n1,-3.062%
O=C(NCc1ccccn1)Nc1ccc2[nH]nnc2c1,-2.922%
CCC(C)Oc1ccccc1CN1Cc2ncccc2C1=O (centres undefined),8.899%
CCc1nc(CNC2CCN(c3ccc(OC)cc3)CC2)cs1,-5.081%
NC(=O)CCN(C(=O)c1cccc2c1OCO2)c1ccccc1,12.61% and 1.413%
Cc1cccc(-c2nc(CN(Cc3cccs3)CC3CCCO3)no2)c1 (centres undefined),15.9%
CCn1cc(CN2CCCN(C(=O)c3ccccc3C)CC2)cn1,-9.446%
CC(C)c1cc(C(=O)N(c2ccc(F)cn2)C2CCOCC2)nn1C,12.21%
O=C(c1ccncc1)N1CCCC1c1cccc(Br)c1 (centres undefined),-47.56%
CC(C)(N)c1cn(C2CCN(C3CCSCC3)CC2)nn1,2.421%
[H][C@@]12CS(=O)(=O)C[C@]1([H])N(C(=O)c1ccc(Cl)cn1)CCN2CCC,4.289%
Cc1cc(C)n(CC2CN(CC(=O)NC(C3CC3)C3CC3)CCO2)n1 (centres undefined),5.393%
COc1ncccc1CNC(=O)N1CCC(CN2CCOCC2)CC1,2.298%
COc1cc(CCC(=O)NC2CCCN(C)C2)ccc1OCC(F)(F)F (centres undefined),10.35%
CCc1nc(N2CCCC(CCCOC)(C(=O)O)C2)ncc1C (centres undefined),4.143%
Cc1ccccc1Cn1nnc2cc3c(cc2c1=O)OCCO3,-4.984%
Cn1c(Cn2ncc(N3CCCCC3)cc2=O)nc2ccccc21,-61.39%
Cc1nsc(N2CCCN(CC(=O)N(C)C3CC3)CC2)n1,-1.553%
CC(C)C(=O)NC1COC2(CCN(C(=O)c3cccnc3)CC2)C1 (centres undefined),17.47%
CN(C)CCCNC(=O)c1cc(Br)c2c(c1)OCCO2,9.922%
COC1CCN(C(=O)CCn2cccn2)CC1,-7.799%
CCN(CC)S(=O)(=O)N1CCCC1c1nnc2n1CCN(C)CC2 (centres undefined),-8.571% and -8.206%
COCCCNC(=O)CCn1ncc2c(Cl)cccc21,-13.8%
CS(=O)(=O)NCCCn1ccc2ccccc21,-17.91%
Cc1c(S(=O)(=O)N2CCCCC2c2nnc(-c3cccs3)o2)cnn1C (centres undefined),-0.6512% and -9.587%
O=C(O)C(F)(F)F.[H][C@@]12CCN(CCOCc3ccccc3)C[C@@]1([H])[C@H](C(=O)N(C)C)CCO2,-55.46%
COCCn1cc2c(n1)C(CNCc1ccco1)OCC2.O=C(O)C(F)(F)F.O=C(O)C(F)(F)F (centres undefined),6.046% and 4.448%
O=C(O)C(F)(F)F.[H][C@@]12OCCN(C(=O)c3cc(C)[nH]c3C)[C@@]1([H])CC[C@H]2OCCN(C)C,6.478%
Cc1nn(C)c(N(C)C)c1CNCc1cccnc1N1CCOCC1,11.38%
Cc1ccc(-c2nc(CNCC3CN(C)CCO3)co2)cc1 (centres undefined),17.48%
Cc1ccc(-c2cnnc(NCC3CCOCC3)n2)o1,-15.23%
O=C(CC1CCc2ccccc21)N1CCC(O)(c2cccnc2)CC1 (centres undefined),1.348%
COCCn1nc(C(=O)N2CCCC2c2cccc(F)c2)ccc1=O (centres undefined),21.09%
Cc1cc(C)n(C2CN(CCC(=O)NCCc3ccccc3)C2)n1,5.289%
CC(=O)N1CCOC(Cc2cccc(C(F)(F)F)c2)C1 (centres undefined),-4.362%
O=C(CCCc1ccccc1)N1CCCC(n2cncn2)C1 (centres undefined),-1.19%
CCCNC(=O)COc1cc(C)c2c(C)nn(-c3ccccc3)c2n1,-9.107%
CCc1nc(CSc2nnc(N)n2C2CC2)no1,-16.16%
CC(=O)Nc1nc(CN2CCn3c(nnc3C(C)C)C2)cs1,0.01816%

10 of the entries, repeated:

SMILES	effect
COc1cc(CCC(=O)NC2CCCN(C)C2)ccc1OCC(F)(F)F (centres undefined)	10.35%
Cc1ccc(-c2cnnc(NCC3CCOCC3)n2)o1	-15.23%
Cc1nccc(CN2CC[C@H](Oc3cccc(F)c3)[C@@](C)(O)C2)n1	-3.062%
NC(=O)CCN(C(=O)c1cccc2c1OCO2)c1ccccc1	12.61% and 1.413%
CC(=O)N1CCOC(Cc2cccc(C(F)(F)F)c2)C1 (centres undefined)	-4.362%
O=C(O)C(F)(F)F.[H][C@@]12CCN(CCOCc3ccccc3)C[C@@]1([H])[C@H](C(=O)N(C)C)CCO2	-55.46%
CCc1nc(CSc2nnc(N)n2C2CC2)no1	-16.16%
Cn1c(Cn2ncc(N3CCCCC3)cc2=O)nc2ccccc21	-61.39%
COc1ncccc1CNC(=O)N1CCC(CN2CCOCC2)CC1	2.298%
Cl.O=C(CN1CCCC1=O)N1CCC(O)(Cn2ccc3ccncc32)CC1	-7.099%